Results are given in words; binding and its absence hold for the method and conditions named. Binding seen in cells or lysates may run through a third protein. Some entries that bind do so weakly or less than the wild type. Tags and fused reporters may be left off the sequences shown.
T1: wild-type tight junction protein 2 (TJP2) with ECFP or EYFP fused to the C-terminus (human) (UniProt Q9UDY2)
T1 sequence: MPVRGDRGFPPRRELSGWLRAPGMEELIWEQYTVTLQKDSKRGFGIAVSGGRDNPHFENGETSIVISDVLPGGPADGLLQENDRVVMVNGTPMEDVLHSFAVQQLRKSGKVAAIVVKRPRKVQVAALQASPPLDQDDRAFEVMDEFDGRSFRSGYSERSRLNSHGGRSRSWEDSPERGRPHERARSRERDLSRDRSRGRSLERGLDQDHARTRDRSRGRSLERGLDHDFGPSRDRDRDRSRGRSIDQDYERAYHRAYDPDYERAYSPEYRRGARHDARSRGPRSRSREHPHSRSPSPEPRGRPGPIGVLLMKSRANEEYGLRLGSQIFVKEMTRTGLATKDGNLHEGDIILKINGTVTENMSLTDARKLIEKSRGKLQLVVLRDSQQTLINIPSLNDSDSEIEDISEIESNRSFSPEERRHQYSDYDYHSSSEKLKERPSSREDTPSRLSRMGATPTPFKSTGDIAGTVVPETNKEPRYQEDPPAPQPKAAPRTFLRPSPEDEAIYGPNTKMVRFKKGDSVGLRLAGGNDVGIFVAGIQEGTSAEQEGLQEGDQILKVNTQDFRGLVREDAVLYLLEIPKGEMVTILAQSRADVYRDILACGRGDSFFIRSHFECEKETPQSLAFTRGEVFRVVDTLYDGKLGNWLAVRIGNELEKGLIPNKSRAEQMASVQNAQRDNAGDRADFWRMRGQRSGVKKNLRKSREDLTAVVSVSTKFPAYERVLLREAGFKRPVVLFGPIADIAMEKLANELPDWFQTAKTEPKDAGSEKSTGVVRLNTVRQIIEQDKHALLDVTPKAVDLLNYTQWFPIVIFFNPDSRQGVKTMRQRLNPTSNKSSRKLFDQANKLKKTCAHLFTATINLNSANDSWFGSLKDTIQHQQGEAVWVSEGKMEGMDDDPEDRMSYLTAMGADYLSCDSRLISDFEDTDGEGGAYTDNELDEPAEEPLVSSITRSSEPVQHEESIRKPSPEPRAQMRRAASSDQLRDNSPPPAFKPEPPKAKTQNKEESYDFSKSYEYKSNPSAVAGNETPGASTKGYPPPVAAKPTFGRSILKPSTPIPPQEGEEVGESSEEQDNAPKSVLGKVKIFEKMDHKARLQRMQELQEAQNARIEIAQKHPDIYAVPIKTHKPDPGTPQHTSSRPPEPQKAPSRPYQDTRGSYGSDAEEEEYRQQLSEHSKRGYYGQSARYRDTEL

T2: TJP2 variant p.T636R with ECFP or EYFP fused to the C-terminus (human) (UniProt Q9UDY2)
T2 sequence: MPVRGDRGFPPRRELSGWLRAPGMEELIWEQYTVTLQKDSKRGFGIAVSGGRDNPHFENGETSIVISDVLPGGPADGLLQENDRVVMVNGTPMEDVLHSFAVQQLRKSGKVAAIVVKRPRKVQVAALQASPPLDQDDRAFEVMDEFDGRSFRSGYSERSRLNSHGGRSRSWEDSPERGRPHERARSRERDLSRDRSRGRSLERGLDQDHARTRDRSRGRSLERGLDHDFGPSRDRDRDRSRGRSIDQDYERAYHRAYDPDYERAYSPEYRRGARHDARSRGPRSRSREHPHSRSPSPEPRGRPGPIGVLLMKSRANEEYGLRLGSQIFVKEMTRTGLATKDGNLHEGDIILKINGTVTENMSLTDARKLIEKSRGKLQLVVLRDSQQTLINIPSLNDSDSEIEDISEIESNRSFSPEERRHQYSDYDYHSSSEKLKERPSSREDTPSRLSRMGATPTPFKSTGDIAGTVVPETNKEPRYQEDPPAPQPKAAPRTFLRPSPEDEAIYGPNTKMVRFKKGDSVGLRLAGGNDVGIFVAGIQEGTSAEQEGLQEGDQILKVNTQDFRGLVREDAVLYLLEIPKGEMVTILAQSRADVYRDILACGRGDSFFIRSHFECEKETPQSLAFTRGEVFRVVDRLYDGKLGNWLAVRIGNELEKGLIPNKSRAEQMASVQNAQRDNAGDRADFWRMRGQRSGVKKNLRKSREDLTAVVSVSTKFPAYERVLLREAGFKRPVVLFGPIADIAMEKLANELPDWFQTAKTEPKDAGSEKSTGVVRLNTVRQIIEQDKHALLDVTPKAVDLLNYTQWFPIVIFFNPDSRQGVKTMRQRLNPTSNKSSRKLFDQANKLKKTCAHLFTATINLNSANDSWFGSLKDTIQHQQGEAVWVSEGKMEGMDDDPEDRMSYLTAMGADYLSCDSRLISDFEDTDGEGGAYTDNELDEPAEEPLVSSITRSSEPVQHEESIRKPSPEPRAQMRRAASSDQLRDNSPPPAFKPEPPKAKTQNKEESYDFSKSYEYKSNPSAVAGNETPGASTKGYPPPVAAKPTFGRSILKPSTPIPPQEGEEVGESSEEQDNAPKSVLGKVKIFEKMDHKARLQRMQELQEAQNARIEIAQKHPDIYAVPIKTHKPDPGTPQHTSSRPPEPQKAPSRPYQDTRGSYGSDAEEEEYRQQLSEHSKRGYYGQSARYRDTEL


Tests used:
[1] = target: T1, wild-type tight junction protein 2 (TJP2) with ECFP or EYFP fused to the C-terminus (human); experiment: FRET or BRET; acceptor photobleaching FRET in fixed HEK 293 Phoenix cells co-transfected with the ECFP (donor) and EYFP (acceptor) fusions, 30 h after transfection, 4% paraformaldehyde, imaged in HBSS at room temperature by confocal microscopy
[2] = target: T2, TJP2 variant p.T636R with ECFP or EYFP fused to the C-terminus (human); experiment: as above

binding [1] | binding [2] | Binder
binds | binds | wild-type tight junction protein 2 (TJP2) with ECFP or EYFP fused to the C-terminus (protein, UniProt Q9UDY2-1 1-1190) MPVRGDRGFPPRRELSGWLRAPGMEELIWEQYTVTLQKDSKRGFGIAVSGGRDNPHFENGETSIVISDVLPGGPADGLLQENDRVVMVNGTPMEDVLHSFAVQQLRKSGKVAAIVVKRPRKVQVAALQASPPLDQDDRAFEVMDEFDGRSFRSGYSERSRLNSHGGRSRSWEDSPERGRPHERARSRERDLSRDRSRGRSLERGLDQDHARTRDRSRGRSLERGLDHDFGPSRDRDRDRSRGRSIDQDYERAYHRAYDPDYERAYSPEYRRGARHDARSRGPRSRSREHPHSRSPSPEPRGRPGPIGVLLMKSRANEEYGLRLGSQIFVKEMTRTGLATKDGNLHEGDIILKINGTVTENMSLTDARKLIEKSRGKLQLVVLRDSQQTLINIPSLNDSDSEIEDISEIESNRSFSPEERRHQYSDYDYHSSSEKLKERPSSREDTPSRLSRMGATPTPFKSTGDIAGTVVPETNKEPRYQEDPPAPQPKAAPRTFLRPSPEDEAIYGPNTKMVRFKKGDSVGLRLAGGNDVGIFVAGIQEGTSAEQEGLQEGDQILKVNTQDFRGLVREDAVLYLLEIPKGEMVTILAQSRADVYRDILACGRGDSFFIRSHFECEKETPQSLAFTRGEVFRVVDTLYDGKLGNWLAVRIGNELEKGLIPNKSRAEQMASVQNAQRDNAGDRADFWRMRGQRSGVKKNLRKSREDLTAVVSVSTKFPAYERVLLREAGFKRPVVLFGPIADIAMEKLANELPDWFQTAKTEPKDAGSEKSTGVVRLNTVRQIIEQDKHALLDVTPKAVDLLNYTQWFPIVIFFNPDSRQGVKTMRQRLNPTSNKSSRKLFDQANKLKKTCAHLFTATINLNSANDSWFGSLKDTIQHQQGEAVWVSEGKMEGMDDDPEDRMSYLTAMGADYLSCDSRLISDFEDTDGEGGAYTDNELDEPAEEPLVSSITRSSEPVQHEESIRKPSPEPRAQMRRAASSDQLRDNSPPPAFKPEPPKAKTQNKEESYDFSKSYEYKSNPSAVAGNETPGASTKGYPPPVAAKPTFGRSILKPSTPIPPQEGEEVGESSEEQDNAPKSVLGKVKIFEKMDHKARLQRMQELQEAQNARIEIAQKHPDIYAVPIKTHKPDPGTPQHTSSRPPEPQKAPSRPYQDTRGSYGSDAEEEEYRQQLSEHSKRGYYGQSARYRDTEL
binds | no binding | TJP2 variant p.T636R with ECFP or EYFP fused to the C-terminus (protein, UniProt Q9UDY2-1 1-1190) MPVRGDRGFPPRRELSGWLRAPGMEELIWEQYTVTLQKDSKRGFGIAVSGGRDNPHFENGETSIVISDVLPGGPADGLLQENDRVVMVNGTPMEDVLHSFAVQQLRKSGKVAAIVVKRPRKVQVAALQASPPLDQDDRAFEVMDEFDGRSFRSGYSERSRLNSHGGRSRSWEDSPERGRPHERARSRERDLSRDRSRGRSLERGLDQDHARTRDRSRGRSLERGLDHDFGPSRDRDRDRSRGRSIDQDYERAYHRAYDPDYERAYSPEYRRGARHDARSRGPRSRSREHPHSRSPSPEPRGRPGPIGVLLMKSRANEEYGLRLGSQIFVKEMTRTGLATKDGNLHEGDIILKINGTVTENMSLTDARKLIEKSRGKLQLVVLRDSQQTLINIPSLNDSDSEIEDISEIESNRSFSPEERRHQYSDYDYHSSSEKLKERPSSREDTPSRLSRMGATPTPFKSTGDIAGTVVPETNKEPRYQEDPPAPQPKAAPRTFLRPSPEDEAIYGPNTKMVRFKKGDSVGLRLAGGNDVGIFVAGIQEGTSAEQEGLQEGDQILKVNTQDFRGLVREDAVLYLLEIPKGEMVTILAQSRADVYRDILACGRGDSFFIRSHFECEKETPQSLAFTRGEVFRVVDRLYDGKLGNWLAVRIGNELEKGLIPNKSRAEQMASVQNAQRDNAGDRADFWRMRGQRSGVKKNLRKSREDLTAVVSVSTKFPAYERVLLREAGFKRPVVLFGPIADIAMEKLANELPDWFQTAKTEPKDAGSEKSTGVVRLNTVRQIIEQDKHALLDVTPKAVDLLNYTQWFPIVIFFNPDSRQGVKTMRQRLNPTSNKSSRKLFDQANKLKKTCAHLFTATINLNSANDSWFGSLKDTIQHQQGEAVWVSEGKMEGMDDDPEDRMSYLTAMGADYLSCDSRLISDFEDTDGEGGAYTDNELDEPAEEPLVSSITRSSEPVQHEESIRKPSPEPRAQMRRAASSDQLRDNSPPPAFKPEPPKAKTQNKEESYDFSKSYEYKSNPSAVAGNETPGASTKGYPPPVAAKPTFGRSILKPSTPIPPQEGEEVGESSEEQDNAPKSVLGKVKIFEKMDHKARLQRMQELQEAQNARIEIAQKHPDIYAVPIKTHKPDPGTPQHTSSRPPEPQKAPSRPYQDTRGSYGSDAEEEEYRQQLSEHSKRGYYGQSARYRDTEL
